Results on three compounds are retold here after PubChem BioAssay AID256 (DTP/NCI, 2004).

In this test the test system is CD2F1 mice, L1210 leukemia ip, survival T/C. The test is described as follows: NCI In Vivo Anticancer Drug Screen. Data for tumor model L1210 Leukemia (intraperitoneal) in CD2F1 (CDF1) mice. Conditions: T/C endpoint: mean survival time, higher T/C = longer survival. In outline:
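Transplantable tumor in mice; compound-treated vs vehicle-treated groups. Read-out = treated/control ratio of the measured endpoint.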

Where [1] appears, read: dose: 25.0 mg/kg/injection, schedule: Q01DX009 (ip), vehicle: other.

The list is a part of this screen's results and no random one: it gathers tests that were run many times, whatever their T/C, doses with no T/C, and many T/C values between a quarter and a half above the control. Further doses and runs are listed elsewhere. T/C gives the treated animals as a percentage of the vehicle group. Some doses have a count of surviving animals in place of a T/C: the source files T/C as zero there, which appears to mark a toxic dose or a test without result, not a measured value. Some survivor counts are full or nearly so, which does not show that the dose was tolerated: survival well below the control is almost never listed, so the zero probably covers shortened survival too. Survivors were counted at the toxicity check, usually on the fifth day, unless a day is given; later deaths do not show. Schedule codes are those of the source, read here as Q, the interval in days (D) or hours (H), X, the number of doses. Where survival is the endpoint, this PubChem deposit counts one and a half times the control or more as active, and values a quarter to a half above the control carry no call in these data; other NCI protocols may use other cut-offs. Some entries hold several experiments; the values are given in rising order. Additions like (4×) stand for listed records that agree.

Turning to `CO[C@H]1C[C@](C)(O)Cc2cc3c(c(O)c21)C(=O)c1c(O)cc2c(c1C3=O)O[C@@H]1O[C@@]2(C)[C@H](O)[C@@H](N(C)C)[C@@H]1O`, the T/C by setting is: (dose: 1.56 mg/kg/injection, schedule: Q01DX009 (ip), vehicle: other, evaluated on day 30) 128, 133, 135 % of control; (dose: 1.56 mg/kg/injection, schedule: Q01DX009 (ip), vehicle: other, evaluated on day 60) 114 % of control; (dose: 3.12 mg/kg/injection, schedule: Q01DX009 (ip), vehicle: other) 135 % of control; (dose: 3.13 mg/kg/injection, schedule: Q01DX009 (ip), vehicle: other) 142 and 146 % of control; (dose: 6.25 mg/kg/injection, schedule: Q01DX009 (ip), vehicle: other, evaluated on day 30) 147, 160, 166, 183 % of control; (dose: 6.25 mg/kg/injection, schedule: Q01DX009 (ip), vehicle: other, evaluated on day 60) 157 % of control. Also, the T/C runs as follows: (dose: 12.5 mg/kg/injection, schedule: Q01DX009 (ip), vehicle: other, evaluated on day 30) 177, 187, 212, 240 % of control; (dose: 12.5 mg/kg/injection, schedule: Q01DX009 (ip), vehicle: other, evaluated on day 60) 193 % of control; (dose: 12.5 mg/kg/injection, schedule: Q01DX009 (oral), vehicle: saline) 140 % of control; under setting [1], 114 (2×), 115, 125 % of control. Moreover, under setting [1], the survivor count is recorded as 6 of 6.

Turning to `NC(COC(c1ccccc1)(c1ccccc1)c1ccccc1)C(=O)O` (stereo not drawn), where the note is “dose: 100.0 mg/kg/injection, schedule: Q01DX009 (ip), vehicle: saline”, the T/C is 133 % of control.

`CC(C)=CC1C(C(=O)OCc2ccc(C)cc2C)C1(C)C` (stereo not drawn): for the setting “dose: 200.0 mg/kg/injection, schedule: Q01DX001 (ip), vehicle: saline”, the survivor count is recorded as 6 of 6.
